The values below come from patent publication US6080739A (priority 1996, dated 2000).

One assay relates to MCF-7. The assay is classed as cell-based.
Another assay relates to MCF7-ADR. The following applies: read-out: IC50 MCF7-ADR.

SMILES strings stand for the structures.

The IC50 is the point on the concentration scale where inhibition reaches its midpoint. Consider `COc1cc2c(c(OC)c1OC)-c1ccc(OC)c(=O)cc1[C@@H](NC(C)=O)CC2` [Colchicine], for which the values for the IC50 with MCF-7 and in the assay on MCF7-ADR were 0.0018 µM and 12 µM, respectively.
